Patent US20230346803A1, “COMPOSITIONS OF BERBERINE URSODEOXYCHOLATE AND METHODS THEREOF FOR TREATING PRIMARY SCLEROSING CHOLANGITIS” (SHENZHEN HIGHTIDE BIOPHARMACEUTICAL LTD., priority 2021, published 2023)
At least one structure is not confirmed: it was looked up by name or label, or the drawing left a doubt.

Test system: adult subjects with PSC
Assay: Phase 2, multicenter, dose-ranging, 18-week, placebo-controlled study of BUDCA in PSC
Format: in vivo, human
Details: Period 2
Method: A Phase 2, multicenter, dose-ranging, 18-week study was conducted comparing two dose regimens of BUDCA (500 mg BID and 1,000 mg BID) to placebo in adult subjects with PSC.
BUDCA drug product (also herein referred to as HTD1801) is a film-coated tablet containing 250 mg of berberine ursodeoxycholate.
The clinical study design consisted of an initial randomized, double-blind, placebo-and dose-controlled, parallel-group period (Period 1), followed by a dose-controlled extension period (Period 2), which is followed by a placebo-controlled randomized withdrawal period (Period 3). • Period 1: Subjects were randomized to receive BID doses of 500 mg, 1,000 mg, or matching placebo for 6 weeks. The primary analysis was based on this initial 6-week randomized, double-blind, placebo- and dose-controlled, parallel-group period. • Period 2: Subjects previously randomized to 500 mg BID or 1,000 mg BID continued for 6 more weeks at that previous dose, while subjects previously randomized to placebo were re-randomized to receive 6 weeks of either 500 mg BID or 1,000 mg BID. • Period 3: Subjects were re-randomized to either continue on the active treatment they had received in Period 2 or be assigned to placebo. […]

COc1ccc2cc3[n+](cc2c1OC)CCc1cc2c(cc1-3)OCO2.C[C@H](CCC(=O)[O-])[C@H]1CC[C@H]2[C@@H]3[C@@H](O)C[C@@H]4C[C@H](O)CC[C@]4(C)[C@H]3CC[C@]12C [BUDCA, berberine ursodeoxycholate]
Mean [SD] change in ALP from Week 6 to Week 12 (Placebo re-randomized to BUDCA 500 mg BID): -34 [180.3] U/L
Mean [SD] change in ALP from Week 6 to Week 12 (Placebo re-randomized to BUDCA 1,000 mg BID): -189 [270.7] U/L
